# Reference: the supplement of paper PMC12067093, “Discovery and optimisation of a covalent ligand for TRIM25 and its application to targeted protein ubiquitination” (Chemical Science, 2025)
# Sequences of proteins named here, by UniProt entry; tags and fusion partners are left off. A change or cut given only in a name is not applied to a line headed by its entry.
# UniProt Q15061: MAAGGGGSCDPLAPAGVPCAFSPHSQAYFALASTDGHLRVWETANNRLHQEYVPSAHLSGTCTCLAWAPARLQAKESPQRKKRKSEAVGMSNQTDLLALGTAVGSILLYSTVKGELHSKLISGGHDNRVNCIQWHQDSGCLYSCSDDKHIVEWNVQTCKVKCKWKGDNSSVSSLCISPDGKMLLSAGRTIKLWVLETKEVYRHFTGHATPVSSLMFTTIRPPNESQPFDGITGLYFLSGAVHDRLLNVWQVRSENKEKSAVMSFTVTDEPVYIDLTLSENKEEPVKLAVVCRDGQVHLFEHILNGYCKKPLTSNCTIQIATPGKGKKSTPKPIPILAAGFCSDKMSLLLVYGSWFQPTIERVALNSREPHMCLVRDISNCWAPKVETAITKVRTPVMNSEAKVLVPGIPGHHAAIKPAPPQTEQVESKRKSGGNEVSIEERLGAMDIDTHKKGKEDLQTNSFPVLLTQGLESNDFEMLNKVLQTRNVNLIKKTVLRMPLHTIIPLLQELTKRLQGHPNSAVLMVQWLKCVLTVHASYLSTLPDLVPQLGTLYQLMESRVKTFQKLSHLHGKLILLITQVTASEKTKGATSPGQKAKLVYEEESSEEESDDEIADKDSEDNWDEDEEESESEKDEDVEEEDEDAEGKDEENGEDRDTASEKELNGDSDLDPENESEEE
# UniProt Q9NNW5: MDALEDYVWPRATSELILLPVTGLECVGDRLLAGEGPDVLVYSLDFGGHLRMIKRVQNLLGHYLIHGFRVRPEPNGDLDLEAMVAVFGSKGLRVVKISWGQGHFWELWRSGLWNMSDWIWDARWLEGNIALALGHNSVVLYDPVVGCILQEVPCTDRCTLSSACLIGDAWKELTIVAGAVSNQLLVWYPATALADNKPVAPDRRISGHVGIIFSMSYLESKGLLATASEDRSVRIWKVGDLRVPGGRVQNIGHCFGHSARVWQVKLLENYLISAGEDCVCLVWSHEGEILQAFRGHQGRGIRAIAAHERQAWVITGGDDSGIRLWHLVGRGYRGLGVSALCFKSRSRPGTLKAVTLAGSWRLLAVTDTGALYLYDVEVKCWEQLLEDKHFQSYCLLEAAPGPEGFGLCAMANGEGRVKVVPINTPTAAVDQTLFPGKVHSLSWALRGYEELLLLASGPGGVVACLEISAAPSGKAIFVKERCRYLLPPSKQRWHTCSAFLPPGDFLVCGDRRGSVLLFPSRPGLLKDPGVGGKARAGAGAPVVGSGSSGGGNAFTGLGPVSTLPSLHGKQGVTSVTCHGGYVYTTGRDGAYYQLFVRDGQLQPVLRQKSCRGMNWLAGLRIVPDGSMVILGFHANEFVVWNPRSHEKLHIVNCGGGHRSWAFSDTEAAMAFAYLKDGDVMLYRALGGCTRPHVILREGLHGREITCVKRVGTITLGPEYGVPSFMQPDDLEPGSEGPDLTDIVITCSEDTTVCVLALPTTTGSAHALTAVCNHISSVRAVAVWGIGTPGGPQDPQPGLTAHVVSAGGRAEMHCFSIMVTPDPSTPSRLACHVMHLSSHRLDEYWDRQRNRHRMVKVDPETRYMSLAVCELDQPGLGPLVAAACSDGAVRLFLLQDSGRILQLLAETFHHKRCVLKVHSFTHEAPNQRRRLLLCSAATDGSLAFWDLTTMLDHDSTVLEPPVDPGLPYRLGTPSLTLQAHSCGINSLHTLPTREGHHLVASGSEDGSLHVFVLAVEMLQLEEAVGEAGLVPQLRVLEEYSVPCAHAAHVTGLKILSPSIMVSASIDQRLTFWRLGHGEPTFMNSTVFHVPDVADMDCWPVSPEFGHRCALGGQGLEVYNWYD
# The list shows a part of the results.
# Tests used:
# [1] = molecular target: WDR43_Q15061_158_HIVEWNVQTCK (UniProt Q15061); test: probe-labelled cysteine peptide fold change vs DMSO (competition) (log2 fold change); higher = less target engagement (more negative = stronger competition); details: THP-1, incubation time: 4 h
# [2] = molecular target: WDR6_Q9NNW5_653_LHIVNCGGGHR (UniProt Q9NNW5); test: as above; details: THP-1, incubation time: 4 h
# 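Note: competitive profiling in live THP-1 cells: cysteine peptides tagged with an iodoacetamide desthiobiotin (IA-DTB) probe, intensity after compound treatment relative to DMSO-treated cells.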
smiles,measurement,setting,value
Cc1cc(C(=O)N2CCCN(C(=O)CCl)CC2)ccc1-c1ccccc1 [compound 10],probe-labelled cysteine peptide fold change,[1]; 10 µM,-0.0124
same,probe-labelled cysteine peptide fold change,[1]; 50 µM,-0.0233
same,probe-labelled cysteine peptide fold change,[2]; 10 µM,0.188
same,probe-labelled cysteine peptide fold change,[2]; 50 µM,-0.0331
